Assay results: patent US20260209348A1
Substitutions are numbered along the chain they refer to. These are yes or no findings as the source states them, for the method shown. Some results given as binding are weak or reduced against the parent protein; the word gives no strength.

Amino acid sequences for entries named in this document (tags omitted). A change or cut given only in a name is not applied to a line headed by its entry.
UniProt Q01974: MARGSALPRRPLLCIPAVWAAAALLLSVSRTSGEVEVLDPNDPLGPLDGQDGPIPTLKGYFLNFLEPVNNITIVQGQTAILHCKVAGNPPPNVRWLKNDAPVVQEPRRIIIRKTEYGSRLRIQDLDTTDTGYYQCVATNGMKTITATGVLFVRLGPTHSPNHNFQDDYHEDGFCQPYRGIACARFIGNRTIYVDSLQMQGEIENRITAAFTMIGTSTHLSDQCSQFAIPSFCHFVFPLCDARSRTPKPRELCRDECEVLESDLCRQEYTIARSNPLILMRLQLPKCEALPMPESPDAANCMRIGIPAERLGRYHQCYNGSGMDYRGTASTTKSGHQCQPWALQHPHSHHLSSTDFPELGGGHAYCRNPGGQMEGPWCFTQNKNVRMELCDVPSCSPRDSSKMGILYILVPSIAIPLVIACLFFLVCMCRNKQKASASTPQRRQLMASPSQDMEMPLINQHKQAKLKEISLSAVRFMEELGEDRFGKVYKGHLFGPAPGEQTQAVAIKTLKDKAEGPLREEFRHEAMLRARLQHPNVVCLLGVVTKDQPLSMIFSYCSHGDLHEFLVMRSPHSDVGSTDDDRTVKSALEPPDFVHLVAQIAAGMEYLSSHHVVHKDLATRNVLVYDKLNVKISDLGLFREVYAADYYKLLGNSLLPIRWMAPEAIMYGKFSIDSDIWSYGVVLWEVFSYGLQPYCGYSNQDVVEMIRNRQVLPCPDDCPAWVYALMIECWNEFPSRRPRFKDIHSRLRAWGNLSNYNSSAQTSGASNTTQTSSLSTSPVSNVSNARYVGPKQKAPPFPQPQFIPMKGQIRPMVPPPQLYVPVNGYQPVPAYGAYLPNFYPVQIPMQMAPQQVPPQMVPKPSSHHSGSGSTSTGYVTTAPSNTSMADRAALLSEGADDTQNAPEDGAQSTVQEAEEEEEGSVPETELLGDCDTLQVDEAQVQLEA

B1: h6E6-001 scFv clone (scFv, V domains shown)
VH: EVQLVESGGGLVKPGGSLRLSCAASGFTFSKYGISWVRQAPGKGLEWVSTISSGGGYTHYADSVKGRFTISRDNAKNSLYLQMNSLRAEDTAVYYCARHPRDFSYALDYWGQGTTVTVSS
VL: EIVMTQSPATLSVSPGERATLSCKASQDVGHYVAWYQQKPGQAPRLLIYWASTRATGIPARFSGSGSGTEFTLTISSLQSEDFAVYYCQQYNIYPWTFGQGTKVEIK
B2: h6E6-002 scFv clone (scFv, V domains shown)
VH: B1 VH with K31S, D62E, L107M
VL: B1 VL with K24R, V33L, A55H
B3: h6E6-003 scFv clone (scFv, V domains shown)
VH: B1 VH with K31Q, I34T, D62E, L107H
VL: B1 VL with K24R, V33L, A55H
B4: h6E6-004 scFv clone (scFv, V domains shown)
VH: B1 VH with K31G, I34M, D62A, L107F
VL: B1 VL with V33L
B5: h6E6-005 scFv clone (scFv, V domains shown)
VH: B1 VH with K31G, I34L, D62A, L107M
VL: B1 VL
B6: h6E6-006 scFv clone (scFv, V domains shown)
VH: B1 VH with K31T, I34M, D62T, L107H
VL: B1 VL with K24R, V33L
B7: h6E6-007 scFv clone (scFv, V domains shown)
VH: B1 VH with K31G, I34L, D62P, L107Q
VL: B1 VL
B8: h6E6-008 scFv clone (scFv, V domains shown)
VH: B1 VH with K31Q, I34T, T50S, D62E, L107F
VL: B1 VL
B9: h6E6-009 scFv clone (scFv, V domains shown)
VH: B1 VH with K31G, I34M, S35N, D62E, L107A
VL: B1 VL with V33L
B10: h6E6-010 scFv clone (scFv, V domains shown)
VH: B1 VH with K31N, I34M, A61V, D62A, L107M
VL: B1 VL with V33L
B11: h6E6-011 scFv clone (scFv, V domains shown)
VH: B1 VH with K31G, I34M, D62T, L107M
VL: B1 VL with V33L
B12: h6E6-012 scFv clone (scFv, V domains shown)
VH: B1 VH with K31A, I34A, T50S, A61V, D62E, L107Q
VL: B1 VL with K24R, V33L
B13: h6E6-013 scFv clone (scFv, V domains shown)
VH: B1 VH with D62A, L107Q
VL: B1 VL with V33L
B14: h6E6-014 scFv clone (scFv, V domains shown)
VH: B1 VH with K31S, I34M, S35N, A61V, L107T
VL: B1 VL with K24R, A55H
B15: h6E6-015 scFv clone (scFv, V domains shown)
VH: B1 VH with K31N, I34L, A61V, D62T
VL: B1 VL with A55H
B16: h6E6-016 scFv clone (scFv, V domains shown)
VH: B1 VH with K31A, I34M, D62T, L107Q
VL: B1 VL with A55H
B17: h6E6-017 scFv clone (scFv, V domains shown)
VH: B1 VH with K31R, I34M, T50S, D62E, L107M
VL: B1 VL with V33L, A55H
B18: h6E6-018 scFv clone (scFv, V domains shown)
VH: B1 VH with K31G, I34V
VL: B1 VL with K24R, V33L
B19: h6E6-019 scFv clone (scFv, V domains shown)
VH: B1 VH with K31R, I34V, D62A, L107Q
VL: B1 VL
B20: h6E6-020 scFv clone (scFv, V domains shown)
VH: B1 VH with I34V, D62P, L107M
VL: B1 VL with V33L
B21: h6E6-021 scFv clone (scFv, V domains shown)
VH: B1 VH with K31S, I34M, A61V, D62A
VL: B1 VL with V33L
B22: h6E6-022 scFv clone (scFv, V domains shown)
VH: B1 VH with I34T, D62P, L107M
VL: B1 VL
B23: h6E6-023 scFv clone (scFv, V domains shown)
VH: B1 VH with K31S, I34M, D62P
VL: B1 VL with V33L
B24: h6E6-024 scFv clone (scFv, V domains shown)
VH: B1 VH with K31E, I34M, A61V, D62E, L107M
VL: B1 VL with K24R
B25: h6E6-025 scFv clone (scFv, V domains shown)
VH: B1 VH with K31H, I34H, A61V, D62E, L107M
VL: B1 VL with K24R
B26: h6E6-026 scFv clone (scFv, V domains shown)
VH: B1 VH with K31R, I34M, D62A, L107M
VL: B1 VL with A55H
B27: h6E6-027 scFv clone (scFv, V domains shown)
VH: B1 VH with K31T, I34L, A61V, L107M
VL: B1 VL
B28: h6E6-028 scFv clone (scFv, V domains shown)
VH: B1 VH with K31P, I34M, A61V, D62Q
VL: B1 VL
B29: h6E6-029 scFv clone (scFv, V domains shown)
VH: B1 VH with K31H, I34V, D62Q, L107Q
VL: B1 VL with A55H
B30: h6E6-030 scFv clone (scFv, V domains shown)
VH: B1 VH with K31S, I34M, D62A, L107M
VL: B1 VL with V33L
B31: h6E6-031 scFv clone (scFv, V domains shown)
VH: B1 VH with K31S, I34M, D62E, A75D, L107I
VL: B1 VL with K24R, A55H
B32: h6E6-032 scFv clone (scFv, V domains shown)
VH: B1 VH with K31N, I34T, D62E, L107M
VL: B1 VL with V33L
B33: h6E6-033 scFv clone (scFv, V domains shown)
VH: B1 VH with K31T, I34M, A61V, D62T, L107M
VL: B1 VL with A55H
B34: h6E6-034 scFv clone (scFv, V domains shown)
VH: B1 VH with K31S, I34M, A61V, D62H, L107M
VL: B1 VL with Q6P
B35: h6E6-035 scFv clone (scFv, V domains shown)
VH: B1 VH with K31S, L107H
VL: B1 VL with A55H
B36: h6E6-036 scFv clone (scFv, V domains shown)
VH: B1 VH with K31A, I34H, L107Q
VL: B1 VL with V33L, A55H
B37: h6E6-037 scFv clone (scFv, V domains shown)
VH: B1 VH with K31A, I34M, D62T, L107Q
VL: B1 VL with V33L
B38: h6E6-038 scFv clone (scFv, V domains shown)
VH: B1 VH with K31R, I34M, D62P, L86P, L107Q
VL: B1 VL with V33L, A55H
B39: h6E6-039 scFv clone (scFv, V domains shown)
VH: B1 VH with K31N, I34Q, L107V
VL: B1 VL with A55H
B40: h6E6-040 scFv clone (scFv, V domains shown)
VH: B1 VH with K31S, I34H, D62P, L107H
VL: B1 VL with K24R
B41: h6E6-041 scFv clone (scFv, V domains shown)
VH: B1 VH with K31G, I34V, D62P, L107Q
VL: B1 VL
B42: h6E6-042 scFv clone (scFv, V domains shown)
VH: B1 VH with K31G, I34L, A61V, D62E, L107S
VL: B1 VL with K24R
B43: h6E6-043 scFv clone (scFv, V domains shown)
VH: B1 VH with K31S, I34T, D62T, L107M
VL: B1 VL with V33L
B44: h6E6-044 scFv clone (scFv, V domains shown)
VH: B1 VH with K31T, I34S, D62Q
VL: B1 VL with A55H
B45: h6E6-045 scFv clone (scFv, V domains shown)
VH: B1 VH with K31G, I34M, A61V, D62Q, L107M
VL: B1 VL
B46: h6E6-046 scFv clone (scFv, V domains shown)
VH: B1 VH with K31R, D62T, L107M
VL: B1 VL with A55H
B47: h6E6-047 scFv clone (scFv, V domains shown)
VH: B1 VH with I34M, L45P, D62T
VL: B1 VL with K24R

What follows are binders tested against human ROR2 (human) (UniProt Q01974) (assay: ELISA, scFv clones).

binding, binds:
B1
B2
B3
B4
B5
B6
B7
B8
B9
B10
B11
B12
B13
B14
B15
B16
B17
B18
B19
B20
B21
B22
B23
B24
B25
B26
B27
B28
B29
B30
B31
B32
B33
B34
B35
B36
B37
B38
B39
B40
B41
B42
B43
B44
B45
B46
B47
